Common to all, as to assay: EMSA
In general terms: In EMSA bound probe runs differently from free probe, usually more slowly.

Data set [1] concerns S5S1-7A (Schizosaccharomyces pombe). Conditions: 3.5 mM Mg2+, no significant shift implied.
Data set [2] has as its system S5S1-NON (Schizosaccharomyces pombe). Conditions: 3.5 mM Mg2+, comparable to wild type.
Data set [3] deals with S5S1-PM (Schizosaccharomyces pombe). Conditions: 3.5 mM Mg2+, mildly impaired.

This is an account of results in article doi:10.1101/2023.03.23.533938 (bioRxiv, 2023).

Construct, isoform or probe ends are uncertain for at least one entry. For part of these data: A weaker result is weaker than the reference pair of the same experiment. For part of these data: At least one verdict rests on a figure or table, not on a statement of the authors.

With “TTGATAAGAGGTCATTTTTGCGGATGGCTTAGAGCTTAATTGCTGAATCTGGTGCTGTAGCTCAACATGTTTTAAATATG (double strand) [BA663/BA664 80-mer dsDNA]”, the binding result in data set [1] is listed as “binds more weakly”; in data set [2] it was “binds”; in data set [3], “binds more weakly”.
For the sequence “TTGATAAGAGGTCATTTTTGCGGATGGCTTAGAGCTTAATTGCTGAATCTGGTGCTGTAGCTCAACATGTTTTAAATATG [BA663 80-mer ssDNA]”, the binding result in data set [1] is recorded as “binds more weakly”; in data set [2], “binds”; in data set [3], “binds more weakly”.
